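Uptake of anthrax lethal toxin into cultured cells, read by FRET (460/530 nm ratio) and reported from the 460 nm channel; the cell line is not named here. Each compound was tested as a concentration series from about 0.0005 to 40 µM. The number is the fitted AC50 of the 460 nm signal alone; lower values mean a more potent effect. A falling signal goes with compounds filed as inhibitors or cytotoxic, a rising one with activators or fluorescent compounds (inferred from the filed classes).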

Values are in µM. Common to all entries: measured here: 460 nm channel. Part of the compounds only, not a random draw; the main read-out is not listed here. Potencies fitted to partial, single-point or poorly fitting curves are rough. The first word of each remark tells which way the curve ran; it can be opposite to the aim of the assay.

Result for O=c1cc(-c2ccccc2)oc2cc(O)c(O)c(O)c12 was AC50 1.995 µM (falling, full curve).
Result for CC1=CC(=O)NP(=O)(Oc2ccc3ccccc3c2)N1 (centres unmarked) was AC50 0.631 µM (rising, full curve).
Result for CN[C@H]1[C@H](C)O[C@@H](O[C@@H]2C/C=C(/C)C/C(C)=C\C=C/CC[C@@H](C)CNC(=O)/C=C\C=C/[C@H]2C)C[C@@H]1O was AC50 5.012 µM (falling, single point).
Result for CCn1c(CNc2ccc(F)cc2)nnc1SCC(=O)N1CCCc2ccccc21 was AC50 12.59 µM (rising, single point).
Result for O=C(c1cnccn1)N1CCC[C@@]2(CCN(c3ncccn3)C2)C1 was AC50 5.012 µM (rising, single point).
Result for Cn1cc(-c2nc3cnc(N4CCOCC4)nc3n(C3CC3)c2=O)c2ccccc21 was AC50 6.31 µM (rising, partial curve).
Result for COC(=O)c1ccc2ncccc2c1 was AC50 0.1259 µM (falling, partial curve).
Result for N#CCCn1c(=O)cnc2cnc(Nc3ccccc3)nc21 was AC50 0.1259 µM (falling, single point).
Result for O=C(NCC1CCS(=O)(=O)C1)Oc1ccccc1 (centres unmarked) was AC50 5.012 µM (falling, single point).
Result for COc1cccc(Cn2c(=O)c(-c3ccc(Cl)cc3)nc3cnc(N(C)C)nc32)c1 was AC50 0.7943 µM (rising, full curve).
Result for N#Cc1c(NC(=O)Cn2c(=O)oc3ccccc32)oc(-c2ccccc2)c1-c1ccccc1 was AC50 31.62 µM (falling, partial curve, poor fit).
Result for CC(C)CO/N=C1/C[C@@H](O)[C@@H](O)[C@@H]2[C@H]3C(=O)N(c4ccc(F)cc4F)C(=O)[C@@H]3CC[C@@H]12 was AC50 0.003981 µM (falling, single point).
Result for C[C@@](Br)(C(=O)O)[C@H](Br)C(=O)O was AC50 3.981 µM (rising, single point).
Result for Cc1noc(C)c1-c1ccc2ncnc(NCc3ccccc3)c2c1 was AC50 5.012 µM (falling, single point).
Result for CN(C)CC(C)(C)CNC(=O)C1CCN(Cc2ccccc2O)CC1 was AC50 15.85 µM (falling, partial curve).
Result for N#CCCn1c(=O)c(-c2ccccc2)nc2cnc(N3CCNCC3)nc21 was AC50 10 µM (rising, partial curve).
Result for CC1CCCN(C(=O)CSc2nnc(-c3cccnc3)n2C2CCCCC2)C1 (centres unmarked) was AC50 0.003981 µM (falling, full curve, poor fit).
Result for CC1CC(C)CN(C(=O)CSCC(=O)Nc2nc(-c3cccs3)cs2)C1 (centres unmarked) was AC50 31.62 µM (falling, single point).
Result for [Cl][In]([Cl])[Cl] was AC50 31.62 µM (falling, partial curve).
Result for O=C(Nc1ccc2c(c1)nc1n2CCSC1)c1ccccc1 was AC50 31.62 µM (falling, single point).
Result for CC(C)CCNC(=O)C(C)N(C(=O)Cn1nnc(-c2ccc(F)cc2)n1)C1CCCC1 (centres unmarked) was AC50 6.31 µM (rising, partial curve).
Result for Cc1ccc(S(=O)(=O)NC2=NCN(Cc3ccccc3)CN2)cc1 was AC50 5.012 µM (rising, partial curve).
Result for Cc1c(C(=O)OCCOc2ccccc2)[nH]c2c1C(=O)CCC2 was AC50 12.59 µM (falling, single point).
Result for COc1ccc(-c2nc3cnc(N(C)C)nc3n(C3CC3)c2=O)cc1 was AC50 10 µM (rising, partial curve).
Result for C[C@H]1CCCC(=O)CCC/C=C/c2cc(O)cc(O)c2C(=O)O1 was AC50 19.95 µM (falling, partial curve, poor fit).
Result for Cc1ccsc1C1C2=C(CCCC2=O)Nc2ncnn21 (centres unmarked) was AC50 2.512 µM (rising, full curve, poor fit).
Result for c1ccc2c(NCCN3CCOCC3)nc(-c3ccc4c(c3)OCO4)nc2c1 was AC50 12.59 µM (falling, partial curve).
Result for CCCCNC(=O)CSc1nc2ccccc2c(=O)n1C1CCCC1 was AC50 0.01 µM (rising, full curve, poor fit).
Result for COc1ccc(N2C(=O)C3C4C=CC(C4)C3C2=O)c(OC)c1 (centres unmarked) was AC50 0.2512 µM (rising, full curve, poor fit).
Result for Nc1cc(=O)[nH]c(SCc2nnc(-c3ccccc3)o2)n1 was AC50 5.012 µM (rising, single point).
Result for O=C(CC1=NCCNC(c2ccccc2)C1)c1ccccc1O (centres unmarked) was AC50 12.59 µM (rising, single point).
Result for C=CCNc1nc(C2(C)CC3(CC(C)OC3=O)C(=O)O2)cs1 (centres unmarked) was AC50 0.631 µM (rising, single point).
Result for Cc1[nH]c2ccccc2c1C1(O)C(=O)N(Cc2ccc3c(c2)OCO3)c2ccccc21 (centres unmarked) was AC50 19.95 µM (falling, single point).
Result for Cc1cc(-c2nnc(-c3ccccc3)c(-c3ccccc3)n2)c(C)o1 was AC50 19.95 µM (rising, single point).
Result for O=C(OCCN1C(=O)c2ccccc2C1=O)c1cc(S(=O)(=O)N2CCOCC2)ccc1F was AC50 12.59 µM (rising, partial curve).
Result for Cc1c(O)cccc1C(=O)N[C@@H](CSc1ccccc1)[C@H](O)CN1C[C@H]2CCCC[C@H]2C[C@H]1C(=O)NC(C)(C)C was AC50 15.85 µM (falling, partial curve).
Result for COc1cc2c(c(OC)c1OC)-c1ccc(O)c(=O)cc1[C@@H](NC(C)=O)CC2 was AC50 6.31 µM (falling, partial curve, poor fit).

Repeated from the top, 5 entries:

SMILES	AC50 (µM)	curve as filed
O=c1cc(-c2ccccc2)oc2cc(O)c(O)c(O)c12	1.995	falling, full curve
CC1=CC(=O)NP(=O)(Oc2ccc3ccccc3c2)N1 (centres unmarked)	0.631	rising, full curve
CN[C@H]1[C@H](C)O[C@@H](O[C@@H]2C/C=C(/C)C/C(C)=C\C=C/CC[C@@H](C)CNC(=O)/C=C\C=C/[C@H]2C)C[C@@H]1O	5.012	falling, single point
CCn1c(CNc2ccc(F)cc2)nnc1SCC(=O)N1CCCc2ccccc21	12.59	rising, single point
O=C(c1cnccn1)N1CCC[C@@]2(CCN(c3ncccn3)C2)C1	5.012	rising, single point

The results are deposited in PubChem (AID912; NCATS, 2007).